# In PubChem BioAssay AID493014 (National Center for Advancing Translational Sciences (NCATS), 2011):
# Some of the results follow. The main result of the screen is listed elsewhere. These columns were measured beside it and carry no call. Compounds called inactive in the main read-out are mostly missing here. The note in brackets gives the kind of curve behind each potency; many fits are weak.
# Assay: qHTS Assay to Find Inhibitors of Chronic Active B-Cell Receptor Signaling
# Conditions: ABC-DLBCL IkBa-CBG/CBR reporter, luminescence ratio (green luciferase fused to IkBa over red control in TMD8 lymphoma cells), 4 h
# Summary of the method: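 Cell line TMD8 (human ABC DLBCL), stably expressing tet-inducible CBG68-IkBa fusion and CBR; IMDM/0.5% FBS; cpd up to 46 uM; dox induction, 4 h, 37C/5% CO2; dual luminescence; green/red ratio; MG132 control.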
# [1] = measured here: CBR red luminescence, cell number
# [2] = measured here: IkBa-CBG green luminescence
Compound,AC50 [1],AC50 [2]
O=C(Cn1c(=O)oc2cc(S(=O)(=O)NCc3ccccc3)ccc21)Nc1ccc(F)c(Cl)c1,"8.91 µM [falling, partial curve, poor fit]",–
C=C1C(=O)O[C@@H]2C[C@@H](C)[C@@H]3C=CC(=O)[C@@]3(C)[C@@H](OC(=O)CC(=O)O[C@H]3[C@@H]4C(=C)C(=O)O[C@@H]4C[C@@H](C)[C@@H]4C=CC(=O)[C@]43C)[C@H]12,"1.58 µM [falling, full curve]",–
O=c1c2ccccc2nc(-c2ccco2)n1-c1ccncc1,"1.58 µM [falling, partial curve, poor fit]",–
CNCC[C@H](Oc1ccc(C(F)(F)F)cc1)c1ccccc1,"23.1 µM [falling, single point]",–
CCCc1cnc(NCCNCC(O)COc2ccc(Cl)c(Cl)c2)nc1 (stereo not drawn),"11.2 µM [falling, single point]",–
CC(=NCc1cccnc1)c1c(O)n(C2CCCCC2)c(=O)[nH]c1=O,"2.91 µM [falling, partial curve]","4.11 µM [rising, partial curve, poor fit]"
CN(C)C(=S)SSC(=S)N(C)C,"0.631 µM [falling, full curve, poor fit]","0.631 µM [falling, partial curve, poor fit]"
COc1ccc2nc(NC(=O)CCc3nc(C4=CCN(C)CC4)no3)sc2c1,"16.4 µM [falling, partial curve]",–
Nc1ccc(C(=O)N/N=C2/CN3CCC2CC3)cc1,"2.06 µM [falling, partial curve, poor fit]",–
O=C1C2CCCC1C(N1CCCC1)CC2 (stereo not drawn),"23.1 µM [rising, partial curve]",–
COC(=O)CCC(=O)c1oc2ccc(Cl)cc2c1NC(=O)CCCN1C(=O)c2ccccc2C1=O,"20 µM [rising, single point]",–
Cc1ccccc1OCCN=Cc1c(O)n(C)c(=O)n(C)c1=O,"4.47 µM [falling, partial curve, poor fit]",–
O=C(Cc1ccccc1)OCc1ccccc1,"2.06 µM [rising, full curve, poor fit]",–
CCC(=Nc1ccc(OC)cc1OC)c1c(O)n(C)c(=O)n(C)c1=O,"0.398 µM [falling, partial curve, poor fit]",–
Cc1ccc(OCC(=O)N2CCN(CC3CC4C=CC3C4)CC2)cc1 (stereo not drawn),"29.1 µM [rising, single point]",–
O=c1[nH]c(=O)n(Cc2ccccc2)c(O)c1/C=C1\C=Nc2ccccc21,"31.6 µM [rising, single point]",–
Cc1ccc(-c2noc(=O)n2CC(=O)Nc2ccc(S(=O)(=O)NC3CC3)cc2)cc1,"3.26 µM [rising, single point]",–
O=C(Nc1ccc(Cl)c(Cl)c1)c1ccco1,"12.6 µM [falling, partial curve]",–
C=CCN1C(=O)NC(=O)/C(=C\c2ccc(-c3ccccc3[N+](=O)[O-])o2)C1=O,"25.1 µM [rising, single point]",–
CCc1cc2c(s1)N(CC(=O)OC)C(=O)CN=C2c1ccccc1OC,"10 µM [rising, partial curve, poor fit]",–
C/C(=N\Nc1nc2ccccc2c(=O)n1O)c1ccco1,"1.58 µM [falling, full curve, poor fit]",–

Compound,AC50 [1],AC50 [2]
O=c1[nH]c(=S)[nH]c(O)c1N=Nc1ccc(SC(F)F)cc1,"7.08 µM [falling, partial curve]",–
Cn1nc(-c2ccc(OCC(=O)N3CCN(Cc4ccccc4)CC3)cc2)c2ccccc2c1=O,"5.17 µM [falling, single point]","3.66 µM [rising, partial curve, poor fit]"
CCCCCC[N+](=O)[O-],"32.6 µM [rising, single point]",–
O=c1ccc2cc(O[C@@H]3O[C@@H](CO)[C@H](O)[C@@H](O)[C@@H]3O)c(O)cc2o1,"8.91 µM [rising, partial curve]",–
CN1[C@@H]2CC[C@H]1CC(OC1c3ccccc3CCc3ccccc31)C2 (stereo partly drawn),"25.9 µM [falling, single point]",–
O=C(Cn1c(=O)oc2ccccc21)Nc1ccc(Br)cc1,"3.98 µM [falling, partial curve, poor fit]",–
COC(=O)C1=CO[C@@H](C)[C@@H]2CN3CC[C@@]4(C(=O)Nc5ccccc54)[C@@H]3C[C@H]12,"6.51 µM [falling, partial curve, poor fit]",–
O=C(C1CCC(=O)N1C1CCCCC1)N1CCC2(CC1)OCCO2 (stereo not drawn),"2.24 µM [rising, partial curve, poor fit]",–
CCOc1ccc(C(=O)OC2CC3CCC(C2)N3C)cc1 (stereo not drawn),"11.2 µM [rising, partial curve, poor fit]",–
COc1ccc(NC(=O)N2CCC3(CC2)OCCO3)c(OC)c1,"0.447 µM [rising, full curve, poor fit]",–
C=CCN=C(SCC(=O)c1ccc(Cl)cc1)c1c(O)n(C)c(=O)n(C)c1=O,"11.2 µM [falling, single point]",–
COc1cc2c(c(OC)c1OC)-c1ccc(O)c(=O)cc1[C@@H](NC(C)=O)CC2,"23.1 µM [rising, partial curve]","20.6 µM [falling, single point]"
C=C(C)CSc1nnc(-c2ccc(OC)cc2)n1N,"11.2 µM [rising, partial curve]",–
COc1ccc(N(Cc2ccccc2)N=O)cc1,"17.8 µM [rising, single point]",–
Cc1ccccc1NC(=O)CCl,"22.4 µM [falling, single point]",–
Cc1cc(C)cc(NC(=O)CN2C(=O)CN=C(c3ccccc3)c3cc(Cl)ccc32)c1,"1.41 µM [rising, partial curve, poor fit]",–
CC/C(=N\NC(=O)c1ccccc1Cl)c1c(O)n(C2CCCCC2)c(=O)[nH]c1=O,"1.26 µM [falling, partial curve, poor fit]",–
CC1CCC/C=C/C2CC(O)CC2C(O)/C=C/C(=O)O1 (stereo not drawn),"0.206 µM [falling, full curve, poor fit]",–
COc1c(C)cc(Br)cc1C(=O)Nc1ccc(Cc2ccncc2)cc1,"35.5 µM [falling, single point]",–
Cc1ccc(N2C(=O)NC(=O)/C(=C/C=C/c3ccco3)C2=O)cc1,"29.1 µM [rising, single point]","29.1 µM [falling, single point]"
CCCCCCOC(=O)c1ccccc1N,"0.517 µM [rising, full curve, poor fit]",–

Compound,AC50 [1],AC50 [2]
CC1(C)CN=C(Nc2ccc(F)c(Cl)c2)S1,"35.5 µM [rising, single point]",–
Nc1ccccc1C(=O)OCC(=O)c1ccc2c(c1)OCCO2,"11.2 µM [falling, partial curve]",–
CCCCC(=O)N/N=C/c1c(O)n(CCCC)c(=S)[nH]c1=O,"0.562 µM [rising, partial curve, poor fit]",–
Cc1ccccc1-n1c(O)c(/C=N/c2nccs2)c(=O)[nH]c1=O,"0.708 µM [falling, full curve, poor fit]",–
COc1ccc2c(c1OC)C(=O)OC2c1c(O)n(Cc2ccc(F)cc2)c(=O)[nH]c1=O (stereo not drawn),"1.64 µM [falling, partial curve, poor fit]","2.31 µM [rising, partial curve, poor fit]"
CC1C(OC(=O)CCC(=O)NC(C)(C)CO)O[C@H]2OC3(C)CC[C@H]4[C@H](C)CCC1C24OO3 (stereo partly drawn),"8.91 µM [rising, partial curve, poor fit]",–
CCCOc1ccccc1C1SCC(=O)Nc2c1c(=O)[nH]n2C(C)CCC (stereo not drawn),"22.4 µM [falling, single point]",–
Cc1ccccc1NC(=O)COC(=O)c1cc(C)n(C2CC2)c1C,"9.2 µM [falling, partial curve, poor fit]",–
CCOc1ccc(-c2cc(C)[n+](CCc3ccc(OC)c(OC)c3)c(-c3ccc(OCC)cc3)c2)cc1,"17.8 µM [falling, single point]",–
Cc1cc(OCc2cc(C(=O)O)oc2C)c2c3c(c(=O)oc2c1)CCCC3,"0.282 µM [falling, full curve, poor fit]",–
COc1ccccc1N1CCN(C2CCCN(C(=O)COc3ccccc3Cl)C2)CC1 (stereo not drawn),"35.5 µM [falling, single point]",–
CCCCCCCSc1cc(OC)c(CCN(C)C)cc1OC,"35.5 µM [falling, single point]",–
COc1ccccc1-n1c(-c2ccc(C)cc2)nc2ccccc2c1=O,"6.31 µM [rising, single point]",–
Cc1cc(N2CCCCC2)ccc1C=C1C(=O)N(C)C(=S)N(C)C1=O,"1.16 µM [rising, full curve, poor fit]",–
Oc1cccc2nc3ccccc3nc12,"28.2 µM [falling, partial curve, poor fit]","35.5 µM [falling, single point]"
CCOP(=O)(c1ccc(N(C)C)cc1)C(O)c1ccc(OC)cc1 (stereo not drawn),"3.98 µM [rising, full curve, poor fit]",–
NC(=O)CN1CCCC1=O,"7.08 µM [rising, partial curve]",–
COc1ccc(C(NC(=O)C(C)C)c2ccc3cccnc3c2O)cc1 (stereo not drawn),"4.47 µM [falling, full curve, poor fit]",–
C=CCc1cc(Cl)ccc1OC(=O)Nc1cccc(Cl)c1,"35.5 µM [rising, single point]",–

# 14 entries out of the list, arranged by SMILES length, low to high.
Compound,AC50 [1],AC50 [2]
NC(=O)CN1CCCC1=O,"7.08 µM [rising, partial curve]",–
Oc1cccc2nc3ccccc3nc12,"28.2 µM [falling, partial curve, poor fit]","35.5 µM [falling, single point]"
CC1(C)CN=C(Nc2ccc(F)c(Cl)c2)S1,"35.5 µM [rising, single point]",–
CCCCCCCSc1cc(OC)c(CCN(C)C)cc1OC,"35.5 µM [falling, single point]",–
C=CCc1cc(Cl)ccc1OC(=O)Nc1cccc(Cl)c1,"35.5 µM [rising, single point]",–
Nc1ccccc1C(=O)OCC(=O)c1ccc2c(c1)OCCO2,"11.2 µM [falling, partial curve]",–
Cc1ccccc1NC(=O)COC(=O)c1cc(C)n(C2CC2)c1C,"9.2 µM [falling, partial curve, poor fit]",–
CCOP(=O)(c1ccc(N(C)C)cc1)C(O)c1ccc(OC)cc1 (stereo not drawn),"3.98 µM [rising, full curve, poor fit]",–
Cc1ccccc1-n1c(O)c(/C=N/c2nccs2)c(=O)[nH]c1=O,"0.708 µM [falling, full curve, poor fit]",–
Cc1cc(N2CCCCC2)ccc1C=C1C(=O)N(C)C(=S)N(C)C1=O,"1.16 µM [rising, full curve, poor fit]",–
Cc1cc(OCc2cc(C(=O)O)oc2C)c2c3c(c(=O)oc2c1)CCCC3,"0.282 µM [falling, full curve, poor fit]",–
COc1ccc2c(c1OC)C(=O)OC2c1c(O)n(Cc2ccc(F)cc2)c(=O)[nH]c1=O (stereo not drawn),"1.64 µM [falling, partial curve, poor fit]","2.31 µM [rising, partial curve, poor fit]"
CCOc1ccc(-c2cc(C)[n+](CCc3ccc(OC)c(OC)c3)c(-c3ccc(OCC)cc3)c2)cc1,"17.8 µM [falling, single point]",–
CC1C(OC(=O)CCC(=O)NC(C)(C)CO)O[C@H]2OC3(C)CC[C@H]4[C@H](C)CCC1C24OO3 (stereo partly drawn),"8.91 µM [rising, partial curve, poor fit]",–

# Look-ups from above:
# For AC50 [1], Nc1ccccc1C(=O)OCC(=O)c1ccc2c(c1)OCCO2 has 11.2 µM [falling, partial curve]
# For AC50 [1], COc1ccccc1-n1c(-c2ccc(C)cc2)nc2ccccc2c1=O has 6.31 µM [rising, single point]
